# PubChem BioAssay AID504444 (National Center for Advancing Translational Sciences (NCATS), 2011)
# Among all 360,000 compounds or so, about 7,500 (2.1%) were called active. The inconclusive results got no clear call from the source; some entries with a clear call stand among them for comparison. Calls follow the shape of the dose curve; as a rule, active = well fitted inhibition curve with a large enough effect; inconclusive = small, poorly fitted or top-dose-only effect, or effect the other way; inactive = flat fitted curve, though single readings scatter. Potencies of inconclusive entries are doubtful fits and often do not repeat.
# Assay: Nrf2 qHTS screen for inhibitors; also: nearly all actives have a fitted effect of over 60% in size
# Settings: A549 ARE-Fluc reporter, luciferase luminescence, 18-24 h; activity change, negative = inhibition: at 46 µM (top of the series)
# Method in brief: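 In this cell-based qHTS, ARE-driven firefly luciferase in A549 cells reports Nrf2 activity; the luminescent signal after BugLite lysis is the measured value, with a prior CellTiter-Fluor read for cell health.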
# % is scaled to controls: 0 for no effect and ±100 for the full control effect; potency is read from the fitted curve at half-maximal effect.
Structure (SMILES),Potency,"activity change, negative = inhibition"
CCOC(=O)C1=C(C)N(C[C@@H]2CC[C@@H](Cc3ccc4cc(OC)ccc4c3)O2)C(=O)NC1c1ccccc1 (some centres undefined),"inconclusive: 18.4 µM [falling, single point]",
O=C(Nc1ccc(N2CCN(C(=O)c3ccc(Cl)cc3)CC2)cc1)c1ccc([N+](=O)[O-])o1,active: 20.6 µM,
Cc1cc(=O)[nH]c(N/N=C/c2ccc(F)cc2)n1,"inconclusive: 16.4 µM [activator, single point]",
CC1CCCC(C)N1C(=O)CSc1nccc(=O)[nH]1 (centres undefined),"inconclusive: 1.84 µM [falling, partial curve, poor fit]",
O=C(NCc1ccccc1)C1=C[C@@H](c2ccc(C(F)(F)F)cc2)C[C@@H](OCc2ccc(CO)cc2)O1,"inconclusive: 16.4 µM [falling, single point]",
CC(C)N(Cc1nc(-c2ccccc2)no1)C(=O)C(Cl)(Cl)Cl,"inconclusive: 29.1 µM [falling, single point]",
CCC(NC(=O)CCCc1ccccc1)c1ccccc1 (centres undefined),,inactive: -11.4%
COCCn1c(=N)c(C(=O)NCCc2ccccc2)cc2c(=O)n3cccc(C)c3nc21,,inactive: -1.25%
CCCc1nc2sc3ccccc3c(=O)c2c(=O)n1Cc1ccc(OC)cc1,"inconclusive: 0.92 µM [activator, full curve, poor fit]",
O=C(CN1CCN(S(=O)(=O)c2ccccc2F)CC1)Nc1ccccc1C(=O)c1ccccc1,active: 14.6 µM,
CC1CCN(c2nc3ccccc3nc2SCC(=O)Nc2ccccc2C(C)C)CC1,"inconclusive: 1.64 µM [falling, partial curve, poor fit]",
CC(C)c1ccc(-c2nc(N3CCOCC3)[nH]c(=O)c2C#N)cc1,,inactive: -22.6%
CCn1ncc(C2=NOC(C(=O)Nc3ccc4c(c3)OCO4)C2)c1C (centres undefined),"inconclusive: 11.6 µM [falling, partial curve, poor fit]",
N/C(Cc1cccs1)=N\OC(=O)COc1ccc(Br)cc1,"inconclusive: 32.6 µM [activator, single point]",
COc1ccc(-n2nnnc2SCC(=O)c2ccc(OC)c(OC)c2)cc1,active: 16.4 µM,
O=C(CCCN1C(=O)/C(=C\c2ccco2)SC1=S)Nc1ccc2ccccc2c1,"inconclusive: 29.1 µM [activator, single point]",
COc1ccc2c(c1)c(=O)oc1cc(OCC(=O)NC3CCCCC3)ccc12,,inactive: -43.4%
Cc1ccccc1CN1C(=O)C(O)(c2c[nH]c3ccccc23)c2cc(Cl)ccc21 (centres undefined),"inconclusive: 23.1 µM [falling, single point]",
COc1cccc(CN(C)CC(=O)Nc2cccc(S(=O)(=O)N(C)c3ccccc3)c2)c1OC,"inconclusive: 23.1 µM [falling, single point]",

# Structural class, the entries above containing an NH in an aromatic ring
Structure (SMILES),Potency,"activity change, negative = inhibition"
Cc1cc(=O)[nH]c(N/N=C/c2ccc(F)cc2)n1,"inconclusive: 16.4 µM [activator, single point]",
CC1CCCC(C)N1C(=O)CSc1nccc(=O)[nH]1 (centres undefined),"inconclusive: 1.84 µM [falling, partial curve, poor fit]",
CC(C)c1ccc(-c2nc(N3CCOCC3)[nH]c(=O)c2C#N)cc1,,inactive: -22.6%
Cc1ccccc1CN1C(=O)C(O)(c2c[nH]c3ccccc23)c2cc(Cl)ccc21 (centres undefined),"inconclusive: 23.1 µM [falling, single point]",
